Laboratory results published in US6096314A, “Peptides and pharmaceutical compositions comprising them” (Yeda Research and Development Co. Ltd., priority 1994, dated 2000).
At least one peptide structure holds a part that was inferred or is arguable (an end, a ring closure or a residue). Where no end group is shown, it is not given here.

Experiments:
[1] = system: NOD female mice; assay: Protection from spontaneous diabetes by vaccination (hyperglycemia monitoring, FIG. 7); type: in vivo; details: hyperglycemia = blood glucose exceeding 11.1 mmol/L
[2] = system: anti-C9 anti-idiotypic T cells; assay: T cell proliferation assay of NOD spleen cells against VDJ synthetic peptides (FIG. 5A); type: cell-based, NOD mice; details: peptide 5 μg/ml; for T cell proliferative response to the peptide: NOD mice following vaccination with C9
[3] = system: anti-C9 anti-idiotypic T cells; assay: Proliferative response of splenocytes of C9-inoculated NOD mice to irradiated C9 or C9VDJ peptide, blocked by anti-MHC monoclonal antibodies; type: cell-based; details: blocking antibody none; splenocytes of NOD mice immunized with C9 clone 5 × 10^6
[4] = system: anti-idiotypic T cells; assay: Immunization with C9VDJ constructs/conjugates, anti-idiotypic proliferative response of spleens (FIG. 5B, FIG. 6); type: in vivo; details: NOD female mice, 100 μg intraperitoneally, spleens tested nine days later

Sequence	Protection from spontaneous diabetes [1]	T cell proliferative response to the peptide [2]	Proliferative response (SI) to the stimulator [3] [SI]	T cell proliferative reactivity to the peptide ([2]; prediabetic NOD mice vaccinated with control T cells or unvaccinated)	Anti-idiotypic T cell response after immunization [4]	Protection from spontaneous diabetes ([1]; listed as idiotypic VDJ peptide)
ASSLGGNQD [residues 47-55 of SEQ ID NO:1, A-S-S-L-G-G-N-Q-D]	substantial down-regulation of diabetes	–	–	–	–	–
ASSLWTNQDTQY [N4 VDJ peptide, ASSLWTNQDTQY, reference compound]	–	no response	–	–	–	–
ASSLGGNQDTQY [C9 VDJ peptide, ASSLGGNQDTQY]	induces resistance to the development of diabetes	significant boost in the response	7.0	showed T cell proliferative reactivity	boosts the anti-idiotypic T cell reactivity	induces resistance to IDDM
